According to paper PMC9576728:
No constants are given. Whether binding was seen depends on the method and setting. In cells and extracts the contact can be indirect. Binding calls can cover weak binding; strength is not graded here. For some assays here: Tags and fused reporters may be left off the sequences shown.

Chains of the proteins cited; added tags and fusions are not shown. Lines headed by an entry give the natural chain unless they say otherwise; changes in a name come on top.
UniProt A8K830: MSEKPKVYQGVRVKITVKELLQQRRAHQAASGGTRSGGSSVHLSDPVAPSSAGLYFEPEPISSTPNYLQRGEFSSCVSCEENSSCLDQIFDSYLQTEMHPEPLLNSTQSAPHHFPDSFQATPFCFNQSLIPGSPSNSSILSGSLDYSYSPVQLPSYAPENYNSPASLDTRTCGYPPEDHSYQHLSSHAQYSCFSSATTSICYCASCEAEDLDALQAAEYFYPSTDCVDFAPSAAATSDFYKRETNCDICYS

What was measured:
[1] = target: T1, FLAG-POU2F3 (UniProt Q9UKI9); assay: co-IP; immunoprecipitation-western blot of HEK293T cells expressing FLAG-POU2F3 and HA-COLCA2-WT/DAAPP (Fig. 1h); which protein was precipitated is not told
T1 sequence: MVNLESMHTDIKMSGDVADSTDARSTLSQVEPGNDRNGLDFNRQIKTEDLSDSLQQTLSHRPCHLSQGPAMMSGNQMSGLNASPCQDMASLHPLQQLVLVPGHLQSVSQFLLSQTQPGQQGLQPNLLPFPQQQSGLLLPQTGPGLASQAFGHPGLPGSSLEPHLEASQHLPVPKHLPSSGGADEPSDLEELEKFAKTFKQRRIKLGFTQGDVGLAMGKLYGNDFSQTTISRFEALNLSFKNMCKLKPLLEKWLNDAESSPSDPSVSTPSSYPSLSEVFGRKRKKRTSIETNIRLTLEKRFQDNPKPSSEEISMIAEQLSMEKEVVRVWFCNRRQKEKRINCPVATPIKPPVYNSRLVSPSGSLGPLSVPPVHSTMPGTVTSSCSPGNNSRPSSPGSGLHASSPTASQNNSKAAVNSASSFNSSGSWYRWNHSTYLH

[2] = target: T2, POU2F3 (UniProt Q9UKI9); assay: co-IP; immunoprecipitation-western blot of HEK293T cells expressing HA-COLCA2 (WT or DAAPP mutant) and POU2F3 (Fig. 1g); which protein was precipitated is not told
T2 sequence: T1 sequence

HA-COLCA2 mutant where VKELL in the motif is mutated to DAAPP (from UniProt A8K830)
binding [1]: binds | binding [2]: binds
